PubChem BioAssay AID1224830 | NIAID | 2016
Test: 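Regulators of TLR4 signalling towards TNF-alpha in macrophage-like cells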 (primary screen). System: human THP-1 monocytic leukaemia cells, TNF dual-luciferase reporter clone, PMA-differentiated to macrophage-like cells. Reagents: siRNA pool against human genes, 50 nM. Timing: LPS for 4 h, given about 3 days after siRNA transfection. Treatment: bacterial LPS (TLR4 ligand), 10 ng/ml. Measurement: 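Ratio of firefly to renilla light, scaled to the plate median and expressed as a robust z-score per replicate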. Reading the numbers: TNF reporter robust z-score: higher = stronger TNF reporter response to LPS. Hit rule: 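Each well counts as active if its z-score is over 2.8 or under -1.5; controls are left without a call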.
The whole screen tested about 18,000 reagents; below is a part drawn at random. About 2,900 of them (16%) count as active. 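Calls are made per well; low scores hint the gene aids the LPS response, high scores that it dampens it.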 Repeated entries: four replicate wells of each siRNA pool. Reagent sequences are not shown.

target | TNF reporter robust z-score | activity call
HIF3A | 1.86 | inactive
HIF3A | 1.97 | inactive
HIF3A | 0.62 | inactive
HIF3A | 1.99 | inactive
SPINK7 | 0.14 | inactive
SPINK7 | 0.02 | inactive
SPINK7 | -0.93 | inactive
SPINK7 | -1.43 | inactive
PGM2 | -0.2 | inactive
PGM2 | 2.9 | active
PGM2 | 0.88 | inactive
PGM2 | -0.19 | inactive
TRIM77 | -0.38 | inactive
TRIM77 | -0.26 | inactive
TRIM77 | 0.26 | inactive
TRIM77 | -1.04 | inactive
ERCC2 | -1.05 | inactive
ERCC2 | 0.41 | inactive
ERCC2 | 1.09 | inactive
ERCC2 | 0.93 | inactive
EPHA6 | -1.48 | inactive
EPHA6 | 0.1 | inactive
EPHA6 | -0.76 | inactive
EPHA6 | -1.44 | inactive
GALNT2 | 0.69 | inactive
GALNT2 | 1.39 | inactive
GALNT2 | 0 | inactive
GALNT2 | 1.09 | inactive
MIDN | -0.62 | inactive
MIDN | 0.97 | inactive
MIDN | 0.03 | inactive
MIDN | 0.46 | inactive
KCNA4 | -0.22 | inactive
KCNA4 | 0.75 | inactive
KCNA4 | 7.92 | active
KCNA4 | 1.78 | inactive
AMIGO2 | 0.25 | inactive
AMIGO2 | 1.07 | inactive
AMIGO2 | 0.28 | inactive
AMIGO2 | 0.76 | inactive
IRX2-DT | -0.04 | inactive
IRX2-DT | 0.29 | inactive
IRX2-DT | 2.16 | inactive
IRX2-DT | 3.5 | active
HPSE | -0.49 | inactive
HPSE | 0.06 | inactive
HPSE | 0.09 | inactive
HPSE | 0.67 | inactive
CCSER1 | 0.02 | inactive
CCSER1 | -0.16 | inactive
CCSER1 | -0.05 | inactive
EAF2 | -0.59 | inactive
EAF2 | 1.24 | inactive
EAF2 | 1.16 | inactive
EAF2 | 0.81 | inactive
TPSAB1 | -1.28 | inactive
TPSAB1 | -1.41 | inactive
TPSAB1 | -1.2 | inactive
TPSAB1 | -1.13 | inactive
HROB | -0.5 | inactive
HROB | -0.26 | inactive
HROB | -0.1 | inactive
HROB | 0.08 | inactive
SELENOS | -0.2 | inactive
SELENOS | 0.05 | inactive
SELENOS | -0.45 | inactive
SELENOS | -0.03 | inactive
IDI2 | -1.38 | inactive
IDI2 | -0.59 | inactive
IDI2 | -1.32 | inactive
IDI2 | 0.57 | inactive
ALG9 | -1.54 | active
ALG9 | -1.76 | active
ALG9 | -1.06 | inactive
FASTK | -0.95 | inactive
FASTK | -1.03 | inactive
FASTK | -0.84 | inactive
FASTK | -0.45 | inactive

Reformatted: 7 of the entries above.
| target | TNF reporter robust z-score | activity call |
| --- | --- | --- |
| PGM2 | 0.88 | inactive |
| PGM2 | -0.19 | inactive |
| TRIM77 | -0.38 | inactive |
| TRIM77 | -0.26 | inactive |
| TRIM77 | 0.26 | inactive |
| TRIM77 | -1.04 | inactive |
| ERCC2 | -1.05 | inactive |
